Results are given in words; binding and its absence hold for the method and conditions named. Binding seen in cells or lysates may run through a third protein. Some binding calls cover weakened binding; strength is not graded here.
Target: peroxisome proliferator-activated receptor β/δ (rat (endogenous in L6 myotubes)) (UniProt Q62879)
Assay: co-IP; whole cell lysates (50 µg protein, Pierce IP Lysis Buffer) of L6 myotubes treated 24 h with 1 µM dexamethasone or vehicle; immunoprecipitated with goat anti-human PPARβ/δ antibody (Catch and Release v2.0 spin columns, overnight, 4°C), blotted for GR and PPARβ/δ

Protein sequences, listed by entry. Tags and fused reporters are not part of them. Lines headed by an entry give the natural chain unless they say otherwise; changes in a name come on top.
UniProt Q62879: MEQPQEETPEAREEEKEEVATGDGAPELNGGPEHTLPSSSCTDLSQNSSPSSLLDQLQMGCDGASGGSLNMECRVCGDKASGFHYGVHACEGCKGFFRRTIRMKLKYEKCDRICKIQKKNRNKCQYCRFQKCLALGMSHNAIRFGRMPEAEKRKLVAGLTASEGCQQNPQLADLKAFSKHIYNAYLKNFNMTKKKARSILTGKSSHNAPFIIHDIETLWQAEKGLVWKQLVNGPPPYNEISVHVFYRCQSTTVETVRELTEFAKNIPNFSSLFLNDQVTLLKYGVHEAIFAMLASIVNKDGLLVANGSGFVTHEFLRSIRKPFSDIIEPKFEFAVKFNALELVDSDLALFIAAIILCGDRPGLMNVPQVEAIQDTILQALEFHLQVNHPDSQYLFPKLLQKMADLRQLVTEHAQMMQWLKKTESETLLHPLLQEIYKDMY
UniProt P06536: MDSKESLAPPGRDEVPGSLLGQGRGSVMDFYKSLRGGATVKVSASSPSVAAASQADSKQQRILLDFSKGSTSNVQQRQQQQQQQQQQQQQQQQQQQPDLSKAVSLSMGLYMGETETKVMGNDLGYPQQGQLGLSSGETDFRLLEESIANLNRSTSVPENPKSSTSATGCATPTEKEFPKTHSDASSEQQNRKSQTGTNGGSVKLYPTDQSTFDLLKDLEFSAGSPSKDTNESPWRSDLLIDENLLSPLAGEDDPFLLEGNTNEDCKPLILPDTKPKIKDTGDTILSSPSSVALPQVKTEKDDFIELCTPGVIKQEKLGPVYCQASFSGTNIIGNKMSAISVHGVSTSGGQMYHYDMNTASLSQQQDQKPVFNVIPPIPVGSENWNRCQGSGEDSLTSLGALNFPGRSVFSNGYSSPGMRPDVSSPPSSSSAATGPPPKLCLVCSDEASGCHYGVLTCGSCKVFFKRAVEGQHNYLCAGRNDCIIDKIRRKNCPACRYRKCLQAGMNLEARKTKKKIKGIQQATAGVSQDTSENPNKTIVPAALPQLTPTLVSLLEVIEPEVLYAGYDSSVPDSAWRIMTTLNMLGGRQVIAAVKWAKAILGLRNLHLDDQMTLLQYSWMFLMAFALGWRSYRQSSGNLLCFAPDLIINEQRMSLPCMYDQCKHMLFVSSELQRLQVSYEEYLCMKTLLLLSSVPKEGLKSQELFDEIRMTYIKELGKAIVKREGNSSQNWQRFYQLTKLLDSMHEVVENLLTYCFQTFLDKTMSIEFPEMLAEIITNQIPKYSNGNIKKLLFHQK

## glucocorticoid receptor (from UniProt P06536 1-795)
  binding: binds
